Source: patent US8357350B2, “Annulus fibrosus detection in intervertebral discs using molecular imaging agents” (General Electric Company, priority 2009, dated 2013)
At least one compound was matched to its structure with a doubt left.

Key:
Assay in all cases: FM fluorophore uptake, intraoperative fluorescence imaging; for Uptake: Dorsal Root Ganglia: key: +: Positive contrast was concluded if the nerve-to-muscle contrast ratio of FM fluorophore-injected animals was elevated relative to control animals; for Uptake: Intervertebral Disc: key: +: Positive contrast was concluded if the nerve-to-muscle contrast ratio of FM fluorophore-injected animals was elevated relative to control animals
Assay type in all cases: in vivo, mice and rats
Conditions in all cases: 5 mg/kg mice, 0.5 mg/kg rats IP, 16 hours before imaging; signal normalized to muscle, vs vehicle control
dorsal root ganglia = tested on: dorsal root ganglia; note: key: +: Positive contrast was concluded if the nerve-to-muscle contrast ratio of FM fluorophore-injected animals was elevated relative to control animals
Experimental: (§1) Imaging was carried out at near infrared wavelenghts using a 400- to 700-nm “white” light (0.5 mW/cm^2) and a 725- to 775-nm NIR fluorescence excitation light (5 mW/cm^2). Fluorescence images were collected using exposure times ranging from 500 to 2000 msec. All images collected for comparison between vehicle-injected control animals and FM fluorophore-injected animals had the same exposure time and normalization. Color video images were collected on a separate optical channel using custom designed software. The excitation and emission LEDs and filter used for the FM fluorophores and Pam800 in the intraoperative imaging system are described as follows. For fluorescence excitation of FM 1-43, FM 2-10, FM 1-43FX and Formula IA, sixty 5-mm 470 nm LEDs ([…], Inc., Kyoto, Japan) fitted with 470±20 nm band pass (BP) excitation filters (Chroma Technology, Rockingham, Vt.) in custom holders were used, which produced a fluence rate on the imaging surface of 0.56 mW/cm^2. For fluorescence excitation of Formula II, FM 4-64, FM 4-64FX and FM 5-95, sixty 5-mm 535 nm LEDs fitted with 525±25 nm BP excitation filters were used, which produced a fluence rate on the imaging surface of 0.34 mW/cm^2. A 610±38 nm BP filter was used to detect fluorescence emission of FM 1-43, FM 2-10, Formula II, FM 1-43FX and Formula IA. To detect fluorescence emission of FM 4-64, FM 4-64FX and FM 5-95 a 720 nm long pass (LP) filter was used. For fluorescence excitation of Pam800, 348 5-mm 760 nm LEDs fitted with 764±17 nm BP excitation filters were used, which produced a fluence rate on the imaging surface of 8.73 mW/cm^2 and fluorescence emission was detected using a 824±24 nm BP emission filter. To assess the structure-activity relationship of the FM fluorophores, each molecule was administered at 5 mg/kg to mice and 0.5 mg/kg to rats (n=4 per group) in 10% DMSO and 90% PBS IP 16 hours before imaging with the intraoperative system. The fluorescence signal from the spinal cord, intervertebral discs, dorsal root ganglia, trigeminal ganglia, optic nerve, brain and femoral nerve were normalized to muscle signal in the same image. This normalization ratio was then compared between FM fluorophore-injected animals and vehicle-injected control animals.

intervertebral discs = tested on: intervertebral discs; note: key: +: Positive contrast was concluded if the nerve-to-muscle contrast ratio of FM fluorophore-injected animals was elevated relative to control animals
Experimental: as §1

spinal cord = tested on: spinal cord
optic nerve = tested on: optic nerve
brain = tested on: brain
femoral nerve = tested on: femoral nerve

CCN(CC)c1ccc(/C=C/c2cc[n+](CCC[N+](CC)(CC)CC)cc2)cc1.[Br-].[Br-] [FM 2-10]
−: Uptake: Dorsal Root Ganglia (dorsal root ganglia) | Uptake: Intervertebral Disc (intervertebral discs) | Uptake: Spinal Cord (spinal cord) | Uptake: Optic Nerve (optic nerve) | Uptake: Brain (brain) | Uptake: Femoral Nerve (femoral nerve)

CCN(CC)c1ccc(/C=C/C=C/C=C/c2cc[n+](CCC[N+](CC)(CC)CC)cc2)cc1.[Br-].[Br-] [FM 4-64]
−: Uptake: Intervertebral Disc (intervertebral discs) | Uptake: Spinal Cord (spinal cord) | Uptake: Optic Nerve (optic nerve) | Uptake: Brain (brain) | Uptake: Femoral Nerve (femoral nerve)

CCN(CC)c1ccc(C=CC=CC=Cc2cc[n+](CCC[N+](C)(C)C)cc2)cc1.[Br-].[Br-] [FM 5-95]
−: Uptake: Intervertebral Disc (intervertebral discs) | Uptake: Spinal Cord (spinal cord) | Uptake: Optic Nerve (optic nerve) | Uptake: Brain (brain) | Uptake: Femoral Nerve (femoral nerve)
